Results as given in PMC7819943, “Rice protein-binding microarrays: a tool to detect cis-acting elements near promoter regions in rice”.
Some of the results follow.

Each sequence was assayed against T1, OsSMF1 (Oryza sativa, UniProt Q6ZLB0 1-436) (assay: protein-binding microarray (RPBM); PBS, 2% BSA, 51.3 ng/ul salmon testes DNA, 50 uM zinc acetate, 200 nM TF, 25 C, 1 h; high values mean tight binding). Details: protein: recombinant; tags: N-terminal polyhistidine and DsRed monomer fusion (pET32a); chain copies: 2; label: CyDye5-dUTP incorporated in the synthesized complementary strand; 3' TTTTT single-stranded linker to array surface; dsDNA, one strand shown.
T1 sequence: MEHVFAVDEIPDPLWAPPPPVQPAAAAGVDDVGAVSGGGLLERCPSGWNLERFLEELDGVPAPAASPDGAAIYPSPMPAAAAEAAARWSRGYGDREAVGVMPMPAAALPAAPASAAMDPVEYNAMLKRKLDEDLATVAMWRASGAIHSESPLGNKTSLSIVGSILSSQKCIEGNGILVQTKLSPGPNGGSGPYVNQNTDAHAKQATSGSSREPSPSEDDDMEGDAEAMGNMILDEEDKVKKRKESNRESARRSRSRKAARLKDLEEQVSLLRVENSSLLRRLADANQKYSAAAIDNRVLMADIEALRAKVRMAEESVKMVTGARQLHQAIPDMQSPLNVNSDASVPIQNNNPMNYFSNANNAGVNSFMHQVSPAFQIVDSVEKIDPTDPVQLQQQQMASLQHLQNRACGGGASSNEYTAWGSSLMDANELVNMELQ
Outline: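 Per-feature fluorescence intensity (arbitrary units), read on an Axon 4000B scanner, is the binding signal. Transcription factors carrying an N-terminal polyhistidine tag and DsRed fusion were expressed in E. coli BL21-CodonPlus and purified on Ni–NTA. A custom Agilent array, made double-stranded by primer extension with Cy5-dUTP and blocked with 2% BSA, was incubated with 200 nM protein in PBS, 2% BSA, salmon testes DNA and 50 µM zinc acetate at 25 °C for 1 h and then washed.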
With “TTTAAAATTTAATATCACTAATTATAGTTACAATCTCATCCGGAGTCACCTAGTGCAG” the binding signal was 23300 fluorescence intensity (a.u.). In the case of “GTGGCTTCCTCCGCGGAGCACGAGTAGCTTGGCCCCTACCCGGAGTCACCTAGTGCAG”, the binding signal is reported as 3160 fluorescence intensity (a.u.). In the case of “AGAGCGGGTGGGAGGCGAAGTAGACAGGGGCGGGGCGCATCGGAGTCACCTAGTGCAG”, the binding signal is reported as 3970 fluorescence intensity (a.u.). For “CTCGGATTATCCGAGTCGGATAGCATATTAGCATCCTGTACGGAGTCACCTAGTGCAG”, the binding signal was 4220 fluorescence intensity (a.u.). For “CACTGGGCGCGTGCAGCGGCGATTCGACCATCTGTTCCACCGGAGTCACCTAGTGCAG”, the binding signal was 3200 fluorescence intensity (a.u.). With “AGAAAGCGAAAGCAATCCACGTCACCGGCGGCGAGCCGTCCGGAGTCACCTAGTGCAG” the binding signal was 7760 fluorescence intensity (a.u.). With “CTCGAAGACGATATGGCGTGTGATTTTCCACAGTTTATTCCGGAGTCACCTAGTGCAG” the binding signal was 3250 fluorescence intensity (a.u.). In the case of “CCAACCTTTCATTATGCTCGACCAACGTGGCGAACACGTGCGGAGTCACCTAGTGCAG”, the binding signal is reported as 3970 fluorescence intensity (a.u.). “TCCCGCATGTGTTGTGTGATGTGTCTCGTCTCCGCCACCACGGAGTCACCTAGTGCAG” was tested, and the binding signal was 7960 fluorescence intensity (a.u.). In the case of “GTTACCTGCTAGTGACCATTGGTGACTAACTCGCCAAACACGGAGTCACCTAGTGCAG”, the binding signal is reported as 4220 fluorescence intensity (a.u.). In the case of “GCAATAGCCAAGAACTGAGCCAAAGAACAGCCAAGCCCATCGGAGTCACCTAGTGCAG”, the binding signal is reported as 3600 fluorescence intensity (a.u.). For “CATCATGTCACGTGTCAATGTGTCAAGCGTCCGTCTGCTACGGAGTCACCTAGTGCAG”, the binding signal was 10900 fluorescence intensity (a.u.). With “TGGCGGAGCGAACAGCCAACTCGCCGAGTCTCTCTCCGCGCGGAGTCACCTAGTGCAG” the binding signal was 3170 fluorescence intensity (a.u.). For “GTTGGCACGTACGGCGGGCGGCTGACCGGACGAACGCCACCGGAGTCACCTAGTGCAG”, the binding signal was 3190 fluorescence intensity (a.u.). “CGGGTGGGGATGGGCTGGATCTGGATTGATTGGGAGTGTTCGGAGTCACCTAGTGCAG” was tested, and the binding signal was 3910 fluorescence intensity (a.u.). For “ATAGGATCGTGTAGAACATGGTATCTGATTCCTGCAATTTCGGAGTCACCTAGTGCAG”, the binding signal was 3420 fluorescence intensity (a.u.). For “GACCTGATCACCTGAGCCAGTCCACGTACGTACGCCCGACCGGAGTCACCTAGTGCAG”, the binding signal was 9460 fluorescence intensity (a.u.). “CGCTTGTTCGCTGGATTTGCGACCAGCTGCCCACGTCCTGCGGAGTCACCTAGTGCAG” was tested, and the binding signal was 4210 fluorescence intensity (a.u.). With “GTGTCTTCGACCACCACGGCGCTACGTCATGACGCCACCACGGAGTCACCTAGTGCAG” the binding signal was 5950 fluorescence intensity (a.u.). In the case of “TTTAATATTTTGCTTTTAGTGATCACTGCCACATAGGACGCGGAGTCACCTAGTGCAG”, the binding signal is reported as 7890 fluorescence intensity (a.u.). For “GAGGGGAAATGGAGAAATGACTCCCCTGCCCCTTCTTCTCCGGAGTCACCTAGTGCAG”, the binding signal was 3230 fluorescence intensity (a.u.). For “TAGCCTAGAGTCATTCGGTCTACAGTTCTCTAATCATCGGCGGAGTCACCTAGTGCAG”, the binding signal was 3420 fluorescence intensity (a.u.). “CAGCGTCAGCGTCGCACCAACAACTCTACTAACACCACCACGGAGTCACCTAGTGCAG” was tested, and the binding signal was 4180 fluorescence intensity (a.u.). In the case of “CTGACCAAACAGAAAACAGTTACAAGAACACATCTTTGAGCGGAGTCACCTAGTGCAG”, the binding signal is reported as 3160 fluorescence intensity (a.u.). With “GCTAGAAAATAGTGGGGATGGTGTATGCATTGAGTTTGTTCGGAGTCACCTAGTGCAG” the binding signal was 3660 fluorescence intensity (a.u.). For “TGCCATTCTGACCCACATGTCATTGACTCATGTGGATCTTCGGAGTCACCTAGTGCAG”, the binding signal was 7260 fluorescence intensity (a.u.). For “TAAACACAATTCTCCCTAATTATTATTTCTGGATGATGAGCGGAGTCACCTAGTGCAG”, the binding signal was 41400 fluorescence intensity (a.u.). With “TGGATGACTTCATCGTGCCCGACGCCGACGTCCCGACCAACGGAGTCACCTAGTGCAG” the binding signal was 3800 fluorescence intensity (a.u.). For “GGTCCAAGAGCCCAACTGAACCGGAGGAGTCGAGCCGCCGCGGAGTCACCTAGTGCAG”, the binding signal was 23100 fluorescence intensity (a.u.). With “GTGCACGCTTATGTGCGCGCCTGCCCTAATGTTTCTAGGACGGAGTCACCTAGTGCAG” the binding signal was 3270 fluorescence intensity (a.u.). “TGAAATTTACTCGTTAATCATGCAAAGTCCCACGTACTGTCGGAGTCACCTAGTGCAG” was tested, and the binding signal was 5590 fluorescence intensity (a.u.). With “ATCAGGAACATTATGAAATTTTAACACGTTGTCATTGTCTCGGAGTCACCTAGTGCAG” the binding signal was 3760 fluorescence intensity (a.u.). With “AGTCAATTAATCATATGCTAATGACTCACCTCGTTTTGTGCGGAGTCACCTAGTGCAG” the binding signal was 15200 fluorescence intensity (a.u.). For “CGGAGACGGGAGGCGAGGCGAGCGGCGCCGCGGAACGGGACGGAGTCACCTAGTGCAG”, the binding signal was 18600 fluorescence intensity (a.u.). In the case of “GTGGGCCCCACCCACACGTCAGCACCACCATCCGCTCACCCGGAGTCACCTAGTGCAG”, the binding signal is reported as 14400 fluorescence intensity (a.u.). For “AAAGCGAGAGACAGCTCATCGCCCATTCGCCCTCGCGCCGCGGAGTCACCTAGTGCAG”, the binding signal was 4130 fluorescence intensity (a.u.). With “CATTTATAACTTTGCTGTGTTTCACTGATGCAGGTTTTATCGGAGTCACCTAGTGCAG” the binding signal was 3490 fluorescence intensity (a.u.). With “TATATTCAATGCTATGTTTAATGAAACTAATTTGGATATTCGGAGTCACCTAGTGCAG” the binding signal was 65100 fluorescence intensity (a.u.). For “AAATTAACCATGTATGCTAATATGTTATCGCCCTCCAGATCGGAGTCACCTAGTGCAG”, the binding signal was 3390 fluorescence intensity (a.u.). With “GTCGGAGAAAGCGCGACGACGTGGTTGAATTGCTCCGGTGCGGAGTCACCTAGTGCAG” the binding signal was 4040 fluorescence intensity (a.u.). For “ATACTACTACTACCGTTTAACAGTTTATTACTAACAAAATCGGAGTCACCTAGTGCAG”, the binding signal was 4760 fluorescence intensity (a.u.). “GCGCGCCGGGGAGCACAGTCGTCGTCACGACCAGGAGCAGCGGAGTCACCTAGTGCAG” was tested, and the binding signal was 4150 fluorescence intensity (a.u.).
